Data as given in US20190263889A1.
These are yes or no findings as the source states them, for the method shown. Some results given as binding are weak or reduced against the parent protein; the word gives no strength.

Chains of the proteins cited; added tags and fusions are not shown. Residues count along the entry.
UniProt P42081, residues 24-245: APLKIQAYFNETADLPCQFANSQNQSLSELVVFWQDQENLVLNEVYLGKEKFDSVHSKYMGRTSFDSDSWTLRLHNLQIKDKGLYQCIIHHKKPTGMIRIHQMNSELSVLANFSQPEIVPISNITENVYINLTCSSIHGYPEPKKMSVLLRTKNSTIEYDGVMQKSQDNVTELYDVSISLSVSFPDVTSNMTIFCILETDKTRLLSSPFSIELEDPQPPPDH

How the values were obtained:
[1] = molecular target: CTLA-4Fc mutant protein M13 (human (murine residues substituted)); test: ELISA, summary grade
[2] = molecular target: CTLA-4Fc mutant protein M17-1 (human (mutant)); test: ELISA, summary grade
[3] = molecular target: CTLA-4Fc mutant protein M13 (human (murine residues substituted)); test: ELISA, fusion protein coated (FIG. 20)
[4] = molecular target: CTLA-4Fc mutant protein M17-1 (human (mutant)); test: ELISA, fusion protein coated 1 ug/ml (FIG. 21A)
[5] = molecular target: CTLA-4Fc mutant protein M17-1 (human (mutant)); test: ELISA, fusion protein coated 1 ug/ml (FIG. 21B)

Measured: binding

human B7-1Fc fusion protein (from UniProt P33681 35-242)
not listed: [5]
binds: all other assays above

human B7-2Fc fusion protein (from UniProt P42081 24-245)
binds: [2] | [5]
